In paper PMC4006922:
These are yes or no findings as the source states them, for the method shown. In cells and extracts the contact can be indirect. Some results given as binding are weak or reduced against the parent protein; the word gives no strength.

By UniProt entry, the sequences of proteins in these tests, tags left out.
UniProt O00459: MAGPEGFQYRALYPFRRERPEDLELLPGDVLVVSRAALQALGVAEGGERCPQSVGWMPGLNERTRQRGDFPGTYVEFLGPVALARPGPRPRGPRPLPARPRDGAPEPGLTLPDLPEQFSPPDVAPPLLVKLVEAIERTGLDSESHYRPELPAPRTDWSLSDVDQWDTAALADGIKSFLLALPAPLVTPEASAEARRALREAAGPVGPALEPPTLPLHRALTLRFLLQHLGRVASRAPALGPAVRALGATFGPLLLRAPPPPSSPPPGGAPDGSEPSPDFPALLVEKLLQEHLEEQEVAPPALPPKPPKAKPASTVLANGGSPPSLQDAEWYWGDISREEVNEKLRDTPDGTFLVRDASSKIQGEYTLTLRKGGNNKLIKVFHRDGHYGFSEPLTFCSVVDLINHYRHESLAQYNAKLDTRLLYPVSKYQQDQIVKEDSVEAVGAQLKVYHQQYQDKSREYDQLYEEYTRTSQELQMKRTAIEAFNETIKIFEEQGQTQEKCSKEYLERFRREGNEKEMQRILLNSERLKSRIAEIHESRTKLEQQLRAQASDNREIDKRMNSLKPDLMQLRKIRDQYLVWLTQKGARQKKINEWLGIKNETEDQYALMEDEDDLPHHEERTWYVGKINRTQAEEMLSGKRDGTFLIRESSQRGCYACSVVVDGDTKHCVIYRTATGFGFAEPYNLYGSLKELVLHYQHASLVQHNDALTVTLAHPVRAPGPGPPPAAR
UniProt P27986: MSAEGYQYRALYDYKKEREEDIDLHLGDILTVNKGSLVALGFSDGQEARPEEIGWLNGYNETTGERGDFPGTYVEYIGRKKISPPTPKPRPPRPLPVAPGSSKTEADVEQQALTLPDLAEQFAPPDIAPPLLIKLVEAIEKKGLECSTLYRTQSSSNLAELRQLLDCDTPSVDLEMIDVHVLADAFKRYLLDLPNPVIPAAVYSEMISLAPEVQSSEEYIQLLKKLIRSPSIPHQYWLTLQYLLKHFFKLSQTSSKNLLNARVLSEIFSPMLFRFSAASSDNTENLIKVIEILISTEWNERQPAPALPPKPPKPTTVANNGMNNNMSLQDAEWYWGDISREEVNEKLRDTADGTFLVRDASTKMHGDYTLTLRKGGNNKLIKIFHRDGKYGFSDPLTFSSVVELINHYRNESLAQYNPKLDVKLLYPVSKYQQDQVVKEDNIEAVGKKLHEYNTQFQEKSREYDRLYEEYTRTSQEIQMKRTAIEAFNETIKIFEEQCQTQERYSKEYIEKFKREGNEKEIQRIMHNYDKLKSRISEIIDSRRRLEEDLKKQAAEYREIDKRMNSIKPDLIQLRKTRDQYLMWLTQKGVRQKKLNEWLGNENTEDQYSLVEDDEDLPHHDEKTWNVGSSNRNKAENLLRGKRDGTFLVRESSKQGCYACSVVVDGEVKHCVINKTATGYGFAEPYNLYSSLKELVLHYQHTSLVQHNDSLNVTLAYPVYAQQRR
UniProt P42336: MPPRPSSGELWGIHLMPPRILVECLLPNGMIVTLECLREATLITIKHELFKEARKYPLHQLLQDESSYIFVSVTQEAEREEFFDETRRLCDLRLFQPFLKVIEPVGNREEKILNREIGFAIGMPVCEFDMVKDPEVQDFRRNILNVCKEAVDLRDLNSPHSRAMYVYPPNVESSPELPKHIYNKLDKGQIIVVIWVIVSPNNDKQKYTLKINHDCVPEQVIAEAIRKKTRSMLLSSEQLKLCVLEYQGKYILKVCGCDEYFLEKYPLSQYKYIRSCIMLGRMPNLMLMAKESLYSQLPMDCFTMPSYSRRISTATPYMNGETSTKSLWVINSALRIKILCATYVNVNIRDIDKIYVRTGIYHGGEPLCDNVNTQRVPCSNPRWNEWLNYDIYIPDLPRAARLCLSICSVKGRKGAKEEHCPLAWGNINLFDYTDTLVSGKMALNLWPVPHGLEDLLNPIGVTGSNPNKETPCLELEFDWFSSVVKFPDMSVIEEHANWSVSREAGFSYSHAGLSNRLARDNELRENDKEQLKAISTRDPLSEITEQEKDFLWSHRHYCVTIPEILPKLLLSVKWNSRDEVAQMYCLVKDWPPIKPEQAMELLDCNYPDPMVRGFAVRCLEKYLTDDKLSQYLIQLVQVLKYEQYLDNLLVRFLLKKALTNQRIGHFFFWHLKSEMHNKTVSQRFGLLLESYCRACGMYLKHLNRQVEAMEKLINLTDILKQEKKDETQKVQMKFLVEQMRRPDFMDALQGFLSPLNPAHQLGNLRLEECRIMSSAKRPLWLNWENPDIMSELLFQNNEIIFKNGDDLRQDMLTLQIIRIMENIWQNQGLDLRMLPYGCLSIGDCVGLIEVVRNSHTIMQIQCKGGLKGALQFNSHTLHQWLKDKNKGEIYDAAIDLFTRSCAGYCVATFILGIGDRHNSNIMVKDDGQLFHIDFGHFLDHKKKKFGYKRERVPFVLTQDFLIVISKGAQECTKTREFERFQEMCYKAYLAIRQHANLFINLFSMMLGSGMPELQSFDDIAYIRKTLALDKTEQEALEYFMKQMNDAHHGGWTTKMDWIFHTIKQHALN

Experiments:
[1] = target: PI3K regulatory subunit p85β (endogenous) (human (endogenous in HeLa and MCF10A)) (UniProt O00459); assay: co-IP; lysates of vector, wtORF1, V125A and T123D MCF10A lines immunoprecipitated with p85α or p85β antibody; data not shown
[2] = target: PI3K regulatory subunit p85α (endogenous) (human (endogenous in HeLa and MCF10A)) (UniProt P27986); assay: as above
[3] = target: PI3K catalytic subunit p110α (endogenous) (human (endogenous in MCF10A)) (UniProt P42336); assay: co-IP; extracts (300 µg of protein, RIPA buffer) of stably transduced MCF10A lines (vector, wtORF1, V125A, T123D, KI) immunoprecipitated with p110α antibody on protein G-sepharose; immunoblot

Measured: binding

B1: wild-type (wt) Ad9 E4-ORF1 protein expressed in MCF10A cells (protein, UniProt P89079 1-125)
chain: MAESLYAFIDSPGGIAPVQEGTSNRYTFFCPESFHIPPHGVVLLHLKVSVLVPTGYQGRFMALNDYHARDILTQSDVIFAGRRQELTVLLFNHTDRFLYVRKGHPVGTLLLERVIFPSVKIATLV
binds: all assays above
